# Several values for one entry are separate records, joined by “and”; a condition that tells them apart may be missing. Equal values may be shown once. Hit rate of the full screen: of about 260,000 compounds, about 1,500 (0.58%) were called active. Inconclusive means that the source gave no clear call. Such entries were picked first, then a sample of the others.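 How the source made its calls: active means inhibition above a set limit at one or more doses, reproduced on every date tested; inconclusive means results disagree between test dates, or hit never tested in dose response; inactive means the rest.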
# The chains behind the UniProt entries cited, without tags or fusion partners. Where a name states a change or a piece, a line headed by the entry shows the natural chain unless it says otherwise.
# UniProt P69720: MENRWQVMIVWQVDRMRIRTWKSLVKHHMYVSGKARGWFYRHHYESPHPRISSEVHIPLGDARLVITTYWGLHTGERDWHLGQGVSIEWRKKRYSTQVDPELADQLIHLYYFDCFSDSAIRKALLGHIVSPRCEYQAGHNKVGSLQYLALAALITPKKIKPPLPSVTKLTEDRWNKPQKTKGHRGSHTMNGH
# UniProt P69721: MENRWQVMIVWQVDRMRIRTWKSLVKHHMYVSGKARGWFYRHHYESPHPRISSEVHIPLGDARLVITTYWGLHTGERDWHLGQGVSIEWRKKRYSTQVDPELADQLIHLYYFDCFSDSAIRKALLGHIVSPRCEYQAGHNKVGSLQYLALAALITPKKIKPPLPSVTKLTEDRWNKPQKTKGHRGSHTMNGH
# UniProt P69722: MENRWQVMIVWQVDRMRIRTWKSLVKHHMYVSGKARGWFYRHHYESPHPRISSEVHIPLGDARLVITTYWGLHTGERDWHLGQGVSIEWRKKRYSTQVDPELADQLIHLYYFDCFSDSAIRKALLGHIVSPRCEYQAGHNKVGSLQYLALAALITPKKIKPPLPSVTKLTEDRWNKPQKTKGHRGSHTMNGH
# UniProt P69723: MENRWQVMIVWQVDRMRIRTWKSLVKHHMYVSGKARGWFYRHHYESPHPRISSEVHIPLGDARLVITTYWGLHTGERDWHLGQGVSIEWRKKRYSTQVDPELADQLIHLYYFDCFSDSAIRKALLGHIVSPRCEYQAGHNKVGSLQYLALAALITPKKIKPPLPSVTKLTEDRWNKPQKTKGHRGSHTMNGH
# UniProt Q9HC16: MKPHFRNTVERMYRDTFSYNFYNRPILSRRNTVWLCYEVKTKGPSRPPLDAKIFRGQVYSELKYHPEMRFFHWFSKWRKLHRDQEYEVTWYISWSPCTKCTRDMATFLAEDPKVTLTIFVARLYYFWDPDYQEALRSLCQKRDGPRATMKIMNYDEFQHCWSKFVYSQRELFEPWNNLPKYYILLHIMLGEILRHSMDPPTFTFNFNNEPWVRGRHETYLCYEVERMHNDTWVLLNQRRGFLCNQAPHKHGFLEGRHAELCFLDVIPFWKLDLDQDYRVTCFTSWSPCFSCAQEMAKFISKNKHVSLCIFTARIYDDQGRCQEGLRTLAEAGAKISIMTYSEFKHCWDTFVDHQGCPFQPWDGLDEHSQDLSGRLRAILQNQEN
# Molecular target: Virion infectivity factor (Human immunodeficiency virus type 1 group M subtype B (isolate BH10)) + Virion infectivity factor (Human immunodeficiency virus type 1 group M subtype B (isolate BRU/LAI)) + Virion infectivity factor (Human immunodeficiency virus type 1 group M subtype B (isolate PCV12)) + Virion infectivity factor (Human immunodeficiency virus type 1 group M subtype B (isolate HXB2)) + DNA dC->dU-editing enzyme APOBEC-3G (Homo sapiens) (UniProt P69720+P69721+P69722+P69723+Q9HC16)
# Assay: inhibitors of Vif binding to APOBEC3G peptide, primary screen, biochemical, TR-FRET, GST-Vif 1-94, biotin-A3G peptide, dose response retest (AID 1117319);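 further: Vif residues 1-94 fused to GST binding biotinylated APOBEC3G peptide 110-148; 0% = full assay without inhibitor and 100% = GST in place of GST-Vif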
# Conditions: hits give high values
row,SMILES,inhibition
1,CN1C(=O)C2(Oc3ccccc3C3CC(c4ccccc4)=NN32)c2ccccc21 (centres undefined),inconclusive: 49%
2,CNC(=O)C[C@H]1C(=O)N(C2CCCCC2)C[C@@H]1C,inactive: 8.77%
3,C/C(=N/NC(=O)c1cccs1)c1cccc(N)c1,inconclusive: 53.8%
4,Cc1ccc(S(=O)(=O)NCCc2ccccc2)cc1,inconclusive: 31.2%
5,COCCOC(=O)c1c(C)n(C)c2ccc(OC(=O)c3cccs3)cc12,inconclusive: 16%
6,N#Cc1sc2nc(-c3ccccc3)cc(-c3ccco3)c2c1N,inconclusive: 47.2%
7,O=C(c1cc(COc2ccc3c(c2)CCCC3)on1)N1CCCC1,inconclusive: 41.3%
8,O=C(NCC1CCCO1)Nc1ccccc1 (centres undefined),inconclusive: 33.3%
9,O=C(NNC(=O)c1cc2ccccc2o1)c1ccc(F)cc1,inactive: -2.65%
10,Cc1ccc(CNC(=O)COC(=O)Cn2nc(C)c([N+](=O)[O-])c2C)cc1,inactive: 2.03%
11,CC(C)(C)NC(=O)CN(C(=O)Cn1nnc(-c2ccccc2F)n1)c1cccc2c1CCCC2,inconclusive: 38.9%
12,Cc1cc(C)nc(NS(=O)(=O)c2ccc(Br)s2)c1,inconclusive: 7.82%
13,Cc1nc(CCNC(=O)c2cccs2)cs1,inconclusive: 37.4%
14,Cc1ccc(NC(=O)CCC(=O)Nc2ccc(C)cc2)cc1,inactive: 2.94%
15,O=C(Cc1cccs1)Nc1cc(SCCO)cc([N+](=O)[O-])c1,inconclusive: 47.6%
16,COc1cc(-c2csc(C)n2)ccc1O,inconclusive: 35.1%
17,C/C(=N\N=C(N)N)c1cccc([N+](=O)[O-])c1,inconclusive: 36%
18,COc1ccc(N2C3=C(CC4=C2CC(C)(C)CC4=O)C(=O)CC(C)(C)C3)cc1,inactive: 24.6% and inactive: 5.22%
19,Nc1cc(S(=O)(=O)Nc2cc(Cl)ccc2Cl)ccc1N1CCCC1,inconclusive: 62.2%
20,O=C(Cn1cncn1)c1ccc(F)cc1F,inconclusive: 41%

row,SMILES,inhibition
1,c1ccc2sc(NC3=NCN(CCN4CCOCC4)CN3)nc2c1,inconclusive: 55.6%
2,CCC1C(=O)n2nc(-c3ccccc3)cc2N=C1C (centres undefined),inconclusive: 50.6%
3,O=C(Nc1cccc2cccnc12)c1cccnc1,inconclusive: 47.2%
4,O=c1[nH]c(SCc2cccc(Cl)c2)nc2c1CCCC2,inconclusive: 39.6%
5,CCN1C(=O)C(Cc2nc3ccccc3c(=O)n2-c2ccccc2)c2ccccc21 (centres undefined),inconclusive: 27.1%
6,O=C1NC(=O)C(c2ccccc2)(c2ccccc2)N1,inconclusive: 40.2% and inconclusive: 43.1%
7,Cc1ccccc1OCCNc1cc(N2CC(C)NC(C)C2)ccc1[N+](=O)[O-] (centres undefined),inconclusive: 38.1%
8,CSc1cccc(NC(=O)/C=C/c2ccco2)c1,inconclusive: 43.4%
9,CCOc1ncccc1C(=O)OCC(=O)c1c(N)n(C)c(=O)n(C)c1=O,inactive: -0.62%
10,COc1ccc(OCCNC(=O)C(c2ccccc2)c2ccccc2)cc1,inconclusive: 33.5%
11,Cc1cc(O)cc(O)c1C(=O)Cc1ccccc1,inactive: 31%
12,CCOc1ccccc1-n1c(SCC(=O)NC(C)CC)nnc1-c1ccoc1C (centres undefined),inconclusive: 56.4%
13,O=C(NCc1ccccc1)NC1CC2CCC(C1)N2Cc1ccco1 (centres undefined),inconclusive: 44.5%
14,COc1cc(/C=C/C(=O)NCC(=O)N2CCC(N(C)CCN3CCOCC3)CC2)ccc1OC(C)C,inconclusive: 43%
15,O/N=C/c1nc2cc(Cl)ccc2o1,inactive: 4.03%
16,Cc1ccc(CN(C)C(=O)c2ccc3c(c2)NC(=O)CS3)o1,inconclusive: 45.5%
17,CCOc1c(OC(C)=O)ccc(/C=C/c2ccc3cccc(OC(C)=O)c3n2)c1[N+](=O)[O-],inconclusive: 33.6%
18,S=C(NCCc1ccccc1)N1CCN(Cc2ccc(Cl)c(Cl)c2)CC1,inconclusive: 33.3%
19,CC(C)c1nnc(NC(=O)C2c3ccccc3Oc3ccccc32)s1,inconclusive: 36.5%
20,O=C(CCN1CCC(c2ccc(Cl)s2)=N1)c1ccc(Cl)s1,inactive: -2.16%

row,SMILES,inhibition
1,O=C(CSc1oc(-c2cccs2)nc1S(=O)(=O)c1ccc(F)cc1)NCC1CCCO1 (centres undefined),inconclusive: 54.3%
2,Cn1c(=O)c(C(=O)COc2ccc(F)cc2Cl)c(N)n(Cc2ccccc2)c1=O,inconclusive: 38.7%
3,O=C(/C=C/c1ccccc1Cl)N(Cc1ccc(Cl)cc1)C1CCS(=O)(=O)C1 (centres undefined),inactive: 23.6%
4,Cc1cc(C)nc(N/N=C/C2=C(N3CCOCC3)C(=C/c3ccccc3)/CC2)n1,inconclusive: 54%
5,c1cnc2c(OCc3nc4ccccc4[nH]3)cccc2c1,inconclusive: 59.3%
6,C=C1SC(Nc2c(C)cccc2C)=NC12CCCCC2,inconclusive: 39.8%
7,Cc1cc(NC(=O)c2cc(C(C)C)on2)no1,inconclusive: 35.1%
8,COC(=O)C1C(c2ccc(N(C)C)cc2)C(C(=O)OC)S(=O)(=O)CS1(=O)=O (centres undefined),inconclusive: 35.2%
9,N#Cc1ccc(N2CCCNCC2)nc1,inactive: -3.01%
10,Cc1cc[n+](-c2[nH]c(=O)sc2/C=N/N=C(\[O-])CCn2c3ccccc3c3ccccc32)cc1,inconclusive: 48.3%
11,Cc1c(Cl)cccc1N1C(=O)c2ccccc2C1=O,inconclusive: 25%
12,CCNc1ccccc(C(=O)/C=C/c2ccc3c(c2)OCO3)c1=O,inconclusive: 48.6%
13,Cc1cc(C)c2cc(C(c3nnnn3C3CCCC3)N3CCOCC3)c(=O)[nH]c2c1 (centres undefined),inconclusive: 37.2%
14,CN(C)S(=O)(=O)c1ccc(NC(=O)c2cccnc2)cc1,inconclusive: 57.2%
15,CCCN1C(=O)/C(=c2\sc3nc(=O)c(Cc4ccc(C)cc4)nn3c2=O)c2ccccc21,inactive: 1.89%
16,COc1ccccc1NC(=O)N1CCCC1C(=O)Nc1nnc(C(C)C)s1 (centres undefined),inconclusive: 41.5%
17,O=C(Nc1cccc(Cl)c1)N1CCC(CO)(CCOc2ccccc2)CC1,inconclusive: 33.1%
18,Brc1cccc(-c2nnco2)c1,inactive: -2.5%
19,O=C(NCCSCc1ccco1)Nc1ccccc1,inconclusive: 37.2%

# A portion of the results above, for reference:
row,SMILES,inhibition
11,Cc1c(Cl)cccc1N1C(=O)c2ccccc2C1=O,inconclusive: 25%
12,CCNc1ccccc(C(=O)/C=C/c2ccc3c(c2)OCO3)c1=O,inconclusive: 48.6%
